No constants are given. Whether binding was seen depends on the method and setting. Binding seen in cells or lysates may run through a third protein. Some results given as binding are weak or reduced against the parent protein; the word gives no strength.
Experiments:
[1] = target: FGFR1, endogenous in CW-2 and AGS cells (human (endogenous in CW-2 and AGS)) (UniProt P11362); assay: co-IP; endogenous ERBB3 and FGFR1 in CW-2 and AGS cells; which protein was precipitated is not told
MYC-tagged FGFR1 = MYC-tagged FGFR1 (UniProt P11362); assay: co-IP; lysates of HEK293T cells co-transfected with FLAG-tagged ERBB3-E928G and MYC-tagged FGFR1, 3 days after transfection; Co-IP using anti-FLAG and anti-MYC antibodies

Sequences of proteins named here, by UniProt entry; tags and fusion partners are left off. A change or cut given only in a name is not applied to a line headed by its entry. A line that says so, or that is headed by a name, gives the form on record, which may keep a tag or linker. Residues count along the entry.
UniProt P11362, residues 22-822: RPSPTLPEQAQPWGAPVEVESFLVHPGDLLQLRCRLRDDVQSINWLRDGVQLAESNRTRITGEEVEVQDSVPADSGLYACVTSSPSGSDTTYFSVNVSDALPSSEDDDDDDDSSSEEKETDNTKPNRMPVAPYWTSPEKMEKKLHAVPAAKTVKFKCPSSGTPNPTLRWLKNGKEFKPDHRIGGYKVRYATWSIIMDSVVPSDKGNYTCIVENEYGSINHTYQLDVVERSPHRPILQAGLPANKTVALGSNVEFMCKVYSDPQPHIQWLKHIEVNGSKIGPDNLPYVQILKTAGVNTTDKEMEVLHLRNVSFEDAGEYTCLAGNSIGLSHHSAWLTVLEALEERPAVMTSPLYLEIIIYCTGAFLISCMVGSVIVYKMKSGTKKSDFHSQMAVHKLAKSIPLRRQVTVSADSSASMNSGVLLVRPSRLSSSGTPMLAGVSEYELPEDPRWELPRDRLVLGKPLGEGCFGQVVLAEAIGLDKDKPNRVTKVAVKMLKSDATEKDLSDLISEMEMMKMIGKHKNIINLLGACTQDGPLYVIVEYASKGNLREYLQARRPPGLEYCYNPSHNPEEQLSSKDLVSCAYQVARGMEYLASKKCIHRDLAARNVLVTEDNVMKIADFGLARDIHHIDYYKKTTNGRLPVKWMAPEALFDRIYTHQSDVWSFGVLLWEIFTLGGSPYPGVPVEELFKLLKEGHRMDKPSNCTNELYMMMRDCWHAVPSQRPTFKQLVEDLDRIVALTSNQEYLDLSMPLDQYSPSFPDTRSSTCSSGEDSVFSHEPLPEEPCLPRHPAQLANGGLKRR
WT ERBB3, endogenous in AGS cells (P21860, residues 20-1342): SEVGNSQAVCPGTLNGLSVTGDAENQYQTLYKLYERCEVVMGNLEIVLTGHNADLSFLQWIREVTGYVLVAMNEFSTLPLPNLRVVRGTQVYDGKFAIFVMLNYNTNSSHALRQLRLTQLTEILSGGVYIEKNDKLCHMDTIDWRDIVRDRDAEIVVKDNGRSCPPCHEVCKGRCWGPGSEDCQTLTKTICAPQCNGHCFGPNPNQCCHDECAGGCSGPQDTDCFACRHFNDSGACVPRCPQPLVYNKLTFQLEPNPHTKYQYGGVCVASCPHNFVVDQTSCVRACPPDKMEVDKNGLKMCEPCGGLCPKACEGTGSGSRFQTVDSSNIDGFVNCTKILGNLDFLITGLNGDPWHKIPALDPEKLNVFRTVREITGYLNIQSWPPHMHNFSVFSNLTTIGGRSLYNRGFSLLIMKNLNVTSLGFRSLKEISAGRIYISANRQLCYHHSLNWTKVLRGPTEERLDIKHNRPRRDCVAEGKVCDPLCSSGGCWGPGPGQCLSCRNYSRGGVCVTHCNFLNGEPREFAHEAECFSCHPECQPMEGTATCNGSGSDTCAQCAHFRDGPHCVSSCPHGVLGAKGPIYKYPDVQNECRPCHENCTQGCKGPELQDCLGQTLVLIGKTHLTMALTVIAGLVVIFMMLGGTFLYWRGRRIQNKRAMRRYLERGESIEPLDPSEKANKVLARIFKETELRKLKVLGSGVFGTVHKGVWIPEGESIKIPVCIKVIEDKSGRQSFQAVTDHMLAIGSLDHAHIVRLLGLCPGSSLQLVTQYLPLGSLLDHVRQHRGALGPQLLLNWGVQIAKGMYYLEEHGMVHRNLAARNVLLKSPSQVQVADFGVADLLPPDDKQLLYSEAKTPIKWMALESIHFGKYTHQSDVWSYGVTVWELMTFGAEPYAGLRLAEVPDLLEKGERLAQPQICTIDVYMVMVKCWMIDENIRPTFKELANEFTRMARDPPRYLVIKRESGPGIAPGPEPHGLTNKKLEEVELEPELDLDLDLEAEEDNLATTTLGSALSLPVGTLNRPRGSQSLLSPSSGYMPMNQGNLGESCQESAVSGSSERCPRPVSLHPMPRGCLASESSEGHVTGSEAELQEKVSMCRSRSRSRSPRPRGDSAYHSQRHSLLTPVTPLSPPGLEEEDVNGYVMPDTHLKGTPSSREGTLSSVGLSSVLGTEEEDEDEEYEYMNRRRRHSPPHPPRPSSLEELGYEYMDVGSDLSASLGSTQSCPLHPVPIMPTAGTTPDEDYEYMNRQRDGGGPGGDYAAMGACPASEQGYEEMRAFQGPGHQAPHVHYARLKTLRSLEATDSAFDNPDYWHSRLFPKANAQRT
FLAG-tagged ERBB3-E928G (P21860, form named): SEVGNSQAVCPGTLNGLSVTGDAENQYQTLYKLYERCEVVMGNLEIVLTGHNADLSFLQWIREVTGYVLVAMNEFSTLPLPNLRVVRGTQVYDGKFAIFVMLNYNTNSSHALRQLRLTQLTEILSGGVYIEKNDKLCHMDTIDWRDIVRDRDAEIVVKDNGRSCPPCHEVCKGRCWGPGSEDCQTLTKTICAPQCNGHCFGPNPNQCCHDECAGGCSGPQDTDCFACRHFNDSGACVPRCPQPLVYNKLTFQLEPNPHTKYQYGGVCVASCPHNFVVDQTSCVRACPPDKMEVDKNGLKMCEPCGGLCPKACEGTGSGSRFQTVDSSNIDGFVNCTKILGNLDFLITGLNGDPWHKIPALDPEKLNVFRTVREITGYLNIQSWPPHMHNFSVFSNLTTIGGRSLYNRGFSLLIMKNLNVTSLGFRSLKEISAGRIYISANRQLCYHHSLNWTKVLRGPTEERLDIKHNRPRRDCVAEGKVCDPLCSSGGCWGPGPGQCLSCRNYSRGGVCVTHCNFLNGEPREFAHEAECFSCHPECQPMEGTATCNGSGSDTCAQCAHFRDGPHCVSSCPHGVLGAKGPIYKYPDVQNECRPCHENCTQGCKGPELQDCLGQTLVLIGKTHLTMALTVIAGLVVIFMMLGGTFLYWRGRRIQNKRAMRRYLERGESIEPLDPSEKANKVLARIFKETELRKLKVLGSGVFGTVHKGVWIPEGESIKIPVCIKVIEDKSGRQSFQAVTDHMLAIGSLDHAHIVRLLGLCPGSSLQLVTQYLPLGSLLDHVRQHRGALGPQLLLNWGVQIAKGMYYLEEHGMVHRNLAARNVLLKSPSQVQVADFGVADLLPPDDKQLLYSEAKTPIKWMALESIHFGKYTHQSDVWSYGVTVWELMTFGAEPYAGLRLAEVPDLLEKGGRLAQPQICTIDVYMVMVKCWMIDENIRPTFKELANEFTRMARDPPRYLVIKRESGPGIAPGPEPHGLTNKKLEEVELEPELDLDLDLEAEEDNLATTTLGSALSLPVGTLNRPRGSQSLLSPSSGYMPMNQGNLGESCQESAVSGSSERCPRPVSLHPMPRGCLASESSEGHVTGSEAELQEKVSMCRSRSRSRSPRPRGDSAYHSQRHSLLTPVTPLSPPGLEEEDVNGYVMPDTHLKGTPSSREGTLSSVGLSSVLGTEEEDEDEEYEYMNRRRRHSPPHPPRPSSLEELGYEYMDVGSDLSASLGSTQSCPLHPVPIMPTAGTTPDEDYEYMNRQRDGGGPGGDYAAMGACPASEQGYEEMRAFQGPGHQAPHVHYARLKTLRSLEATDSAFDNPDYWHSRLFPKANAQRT

Substance | binding [1] | binding (MYC-tagged FGFR1)
E928G mutant ERBB3, endogenous in CW-2 cells (from UniProt P21860 20-1342) (receptor) | binds | 
FLAG-tagged ERBB3-E928G (from UniProt P21860 20-1342) (receptor) |  | binds
WT ERBB3, endogenous in AGS cells (from UniProt P21860 20-1342) (receptor) | no binding | 
